Measured values as given in the supplement of paper PMC10849652.
Some of the results follow.

Chains of the proteins cited; added tags and fusions are not shown. Lines headed by an entry give the natural chain unless they say otherwise; changes in a name come on top.
UniProt P54105: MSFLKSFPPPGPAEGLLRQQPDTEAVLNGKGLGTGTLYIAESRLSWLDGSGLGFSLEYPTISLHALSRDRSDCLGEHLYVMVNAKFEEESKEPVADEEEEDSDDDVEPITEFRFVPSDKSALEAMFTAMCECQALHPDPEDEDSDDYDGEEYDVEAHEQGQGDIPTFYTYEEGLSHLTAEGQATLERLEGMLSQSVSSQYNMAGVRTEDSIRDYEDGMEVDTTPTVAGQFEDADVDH
UniProt P51790: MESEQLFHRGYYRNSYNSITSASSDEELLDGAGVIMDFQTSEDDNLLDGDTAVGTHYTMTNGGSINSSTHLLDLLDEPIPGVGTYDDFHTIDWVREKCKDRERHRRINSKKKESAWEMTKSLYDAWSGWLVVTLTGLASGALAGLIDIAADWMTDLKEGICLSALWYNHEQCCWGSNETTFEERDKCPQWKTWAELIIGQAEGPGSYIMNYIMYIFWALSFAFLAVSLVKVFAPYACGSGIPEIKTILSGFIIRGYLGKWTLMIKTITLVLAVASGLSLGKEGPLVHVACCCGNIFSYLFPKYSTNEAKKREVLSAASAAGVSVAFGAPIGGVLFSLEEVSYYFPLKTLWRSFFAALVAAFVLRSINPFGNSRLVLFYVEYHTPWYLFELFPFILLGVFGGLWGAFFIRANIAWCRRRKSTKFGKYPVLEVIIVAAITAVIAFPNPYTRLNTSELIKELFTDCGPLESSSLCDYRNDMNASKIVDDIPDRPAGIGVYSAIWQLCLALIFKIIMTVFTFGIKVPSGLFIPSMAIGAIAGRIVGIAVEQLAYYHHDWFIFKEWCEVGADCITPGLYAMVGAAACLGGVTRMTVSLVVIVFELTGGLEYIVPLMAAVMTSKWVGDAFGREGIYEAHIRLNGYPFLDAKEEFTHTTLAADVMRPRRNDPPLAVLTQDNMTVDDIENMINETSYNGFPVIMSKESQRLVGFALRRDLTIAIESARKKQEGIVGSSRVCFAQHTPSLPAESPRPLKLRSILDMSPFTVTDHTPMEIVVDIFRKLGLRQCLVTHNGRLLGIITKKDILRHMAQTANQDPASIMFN
UniProt P09543: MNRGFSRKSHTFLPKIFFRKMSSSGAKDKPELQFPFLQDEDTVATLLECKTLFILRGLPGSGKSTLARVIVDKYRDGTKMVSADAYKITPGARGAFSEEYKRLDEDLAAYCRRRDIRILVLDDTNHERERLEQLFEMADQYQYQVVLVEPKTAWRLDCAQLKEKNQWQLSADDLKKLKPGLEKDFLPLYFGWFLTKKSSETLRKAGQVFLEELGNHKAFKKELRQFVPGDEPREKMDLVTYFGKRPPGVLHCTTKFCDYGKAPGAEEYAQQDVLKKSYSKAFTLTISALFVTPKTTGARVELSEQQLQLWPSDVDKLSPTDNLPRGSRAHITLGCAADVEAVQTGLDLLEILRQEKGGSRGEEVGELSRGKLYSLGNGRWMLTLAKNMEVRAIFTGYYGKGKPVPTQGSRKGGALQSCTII
UniProt Q9NPF2: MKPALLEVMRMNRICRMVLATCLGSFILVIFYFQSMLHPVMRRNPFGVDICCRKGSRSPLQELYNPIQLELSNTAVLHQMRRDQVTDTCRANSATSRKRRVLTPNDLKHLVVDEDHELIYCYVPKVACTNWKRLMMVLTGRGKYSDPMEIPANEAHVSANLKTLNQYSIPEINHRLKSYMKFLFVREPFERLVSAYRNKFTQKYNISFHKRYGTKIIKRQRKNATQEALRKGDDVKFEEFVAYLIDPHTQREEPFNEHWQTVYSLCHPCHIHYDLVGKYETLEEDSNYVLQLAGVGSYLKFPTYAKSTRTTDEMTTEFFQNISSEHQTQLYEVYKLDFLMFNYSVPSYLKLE
UniProt Q9BQ75: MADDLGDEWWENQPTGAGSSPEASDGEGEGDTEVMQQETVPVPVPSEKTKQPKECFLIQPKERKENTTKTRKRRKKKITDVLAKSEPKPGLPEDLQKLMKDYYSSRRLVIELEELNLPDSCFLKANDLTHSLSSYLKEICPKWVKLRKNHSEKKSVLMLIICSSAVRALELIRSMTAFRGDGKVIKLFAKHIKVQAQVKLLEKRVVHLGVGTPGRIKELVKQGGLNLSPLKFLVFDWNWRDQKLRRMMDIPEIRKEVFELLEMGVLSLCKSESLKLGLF
UniProt Q9HAW4: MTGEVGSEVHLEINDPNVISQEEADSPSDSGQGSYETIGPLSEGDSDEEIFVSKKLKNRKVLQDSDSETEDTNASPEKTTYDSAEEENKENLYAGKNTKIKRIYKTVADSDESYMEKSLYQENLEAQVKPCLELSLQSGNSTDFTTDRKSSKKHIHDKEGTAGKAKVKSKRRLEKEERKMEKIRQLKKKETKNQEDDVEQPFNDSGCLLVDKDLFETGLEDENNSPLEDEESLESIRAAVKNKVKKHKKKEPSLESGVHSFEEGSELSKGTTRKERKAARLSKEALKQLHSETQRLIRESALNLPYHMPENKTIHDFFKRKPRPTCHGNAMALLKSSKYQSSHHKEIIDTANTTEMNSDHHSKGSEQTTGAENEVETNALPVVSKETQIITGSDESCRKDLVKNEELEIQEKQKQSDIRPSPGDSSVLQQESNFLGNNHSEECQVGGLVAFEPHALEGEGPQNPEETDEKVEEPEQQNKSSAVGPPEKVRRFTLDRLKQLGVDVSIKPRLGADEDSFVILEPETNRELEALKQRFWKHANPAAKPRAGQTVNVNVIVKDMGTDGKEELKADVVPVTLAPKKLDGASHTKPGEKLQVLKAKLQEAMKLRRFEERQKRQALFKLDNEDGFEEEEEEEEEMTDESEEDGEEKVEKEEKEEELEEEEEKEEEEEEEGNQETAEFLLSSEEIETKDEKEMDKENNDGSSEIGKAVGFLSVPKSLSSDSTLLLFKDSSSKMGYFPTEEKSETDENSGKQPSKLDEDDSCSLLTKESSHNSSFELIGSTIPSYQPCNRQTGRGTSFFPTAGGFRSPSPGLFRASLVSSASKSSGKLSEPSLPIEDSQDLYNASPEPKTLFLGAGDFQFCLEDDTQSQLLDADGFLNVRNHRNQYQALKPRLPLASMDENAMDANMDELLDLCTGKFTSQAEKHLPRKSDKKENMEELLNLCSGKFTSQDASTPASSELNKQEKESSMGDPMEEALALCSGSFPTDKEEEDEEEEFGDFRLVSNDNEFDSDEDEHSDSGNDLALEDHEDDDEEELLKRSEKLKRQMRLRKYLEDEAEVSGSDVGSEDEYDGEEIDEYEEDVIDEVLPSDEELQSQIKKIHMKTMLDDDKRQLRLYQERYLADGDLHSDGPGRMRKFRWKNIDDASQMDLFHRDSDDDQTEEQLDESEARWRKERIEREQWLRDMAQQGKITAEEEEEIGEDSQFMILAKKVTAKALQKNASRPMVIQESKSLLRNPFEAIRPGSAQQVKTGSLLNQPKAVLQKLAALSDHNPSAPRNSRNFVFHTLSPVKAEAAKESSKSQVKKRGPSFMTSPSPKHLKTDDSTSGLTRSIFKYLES
UniProt Q9NWW5: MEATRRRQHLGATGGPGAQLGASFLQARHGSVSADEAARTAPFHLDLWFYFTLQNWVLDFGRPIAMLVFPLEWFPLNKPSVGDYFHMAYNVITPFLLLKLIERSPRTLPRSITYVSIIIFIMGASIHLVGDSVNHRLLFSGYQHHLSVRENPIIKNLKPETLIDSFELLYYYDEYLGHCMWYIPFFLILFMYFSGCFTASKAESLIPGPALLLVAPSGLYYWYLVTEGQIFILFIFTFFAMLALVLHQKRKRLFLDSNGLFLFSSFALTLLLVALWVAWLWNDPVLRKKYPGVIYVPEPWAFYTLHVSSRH
UniProt Q14746: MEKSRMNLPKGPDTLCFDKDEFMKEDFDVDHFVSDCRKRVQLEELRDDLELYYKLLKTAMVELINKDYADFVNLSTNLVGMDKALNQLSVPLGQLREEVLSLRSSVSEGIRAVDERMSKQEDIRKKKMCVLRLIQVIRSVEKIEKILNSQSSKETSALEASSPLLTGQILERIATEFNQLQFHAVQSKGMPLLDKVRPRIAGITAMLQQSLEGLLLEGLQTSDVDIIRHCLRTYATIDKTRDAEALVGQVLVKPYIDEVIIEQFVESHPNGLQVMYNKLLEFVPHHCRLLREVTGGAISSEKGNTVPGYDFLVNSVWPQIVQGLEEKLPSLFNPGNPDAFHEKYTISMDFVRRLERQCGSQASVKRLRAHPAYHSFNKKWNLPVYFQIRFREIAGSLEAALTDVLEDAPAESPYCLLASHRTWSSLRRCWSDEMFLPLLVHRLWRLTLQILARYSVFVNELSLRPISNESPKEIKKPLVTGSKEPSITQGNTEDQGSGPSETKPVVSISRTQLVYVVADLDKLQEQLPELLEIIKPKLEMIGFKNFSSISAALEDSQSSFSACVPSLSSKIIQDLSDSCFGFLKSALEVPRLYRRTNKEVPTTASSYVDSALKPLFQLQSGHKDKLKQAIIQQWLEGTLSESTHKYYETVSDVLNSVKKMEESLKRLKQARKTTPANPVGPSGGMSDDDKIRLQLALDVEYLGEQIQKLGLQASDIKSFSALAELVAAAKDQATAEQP
UniProt P51911: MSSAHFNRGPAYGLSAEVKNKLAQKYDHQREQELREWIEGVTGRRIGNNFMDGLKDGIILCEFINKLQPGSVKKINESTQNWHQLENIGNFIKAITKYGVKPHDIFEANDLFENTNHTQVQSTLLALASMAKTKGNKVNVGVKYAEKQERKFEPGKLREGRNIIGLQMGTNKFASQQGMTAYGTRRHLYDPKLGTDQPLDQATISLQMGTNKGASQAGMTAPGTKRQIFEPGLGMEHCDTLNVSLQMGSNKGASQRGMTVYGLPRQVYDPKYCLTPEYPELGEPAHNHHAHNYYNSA
UniProt Q15417: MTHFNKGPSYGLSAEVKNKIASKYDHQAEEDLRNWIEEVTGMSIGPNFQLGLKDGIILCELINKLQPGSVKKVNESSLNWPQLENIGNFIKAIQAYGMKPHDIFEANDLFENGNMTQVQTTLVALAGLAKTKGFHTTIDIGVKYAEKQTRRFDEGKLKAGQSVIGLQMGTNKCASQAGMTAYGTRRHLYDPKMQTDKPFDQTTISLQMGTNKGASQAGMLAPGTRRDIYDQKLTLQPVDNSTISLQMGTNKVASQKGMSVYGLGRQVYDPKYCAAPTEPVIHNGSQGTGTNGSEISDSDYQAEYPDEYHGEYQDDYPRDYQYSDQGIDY
UniProt P62633: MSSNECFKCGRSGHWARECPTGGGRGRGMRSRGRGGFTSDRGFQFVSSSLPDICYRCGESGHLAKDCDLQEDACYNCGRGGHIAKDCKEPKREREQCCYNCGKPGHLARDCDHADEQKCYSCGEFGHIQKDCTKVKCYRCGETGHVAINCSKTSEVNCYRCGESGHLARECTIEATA
UniProt Q9Y4C5: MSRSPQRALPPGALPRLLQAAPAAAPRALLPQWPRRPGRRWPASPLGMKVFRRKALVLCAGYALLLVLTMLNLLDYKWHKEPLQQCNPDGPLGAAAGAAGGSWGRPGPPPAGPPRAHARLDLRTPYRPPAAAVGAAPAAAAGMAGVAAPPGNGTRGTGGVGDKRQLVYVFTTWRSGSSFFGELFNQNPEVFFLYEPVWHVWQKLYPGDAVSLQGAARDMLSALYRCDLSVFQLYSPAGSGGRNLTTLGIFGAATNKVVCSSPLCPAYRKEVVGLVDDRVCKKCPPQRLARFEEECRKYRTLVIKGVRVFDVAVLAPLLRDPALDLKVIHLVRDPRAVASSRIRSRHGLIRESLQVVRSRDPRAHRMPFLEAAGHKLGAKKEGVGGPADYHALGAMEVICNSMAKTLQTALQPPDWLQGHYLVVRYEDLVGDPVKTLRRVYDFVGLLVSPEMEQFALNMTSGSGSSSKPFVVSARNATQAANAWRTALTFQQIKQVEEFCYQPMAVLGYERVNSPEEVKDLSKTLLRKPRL
UniProt O75503: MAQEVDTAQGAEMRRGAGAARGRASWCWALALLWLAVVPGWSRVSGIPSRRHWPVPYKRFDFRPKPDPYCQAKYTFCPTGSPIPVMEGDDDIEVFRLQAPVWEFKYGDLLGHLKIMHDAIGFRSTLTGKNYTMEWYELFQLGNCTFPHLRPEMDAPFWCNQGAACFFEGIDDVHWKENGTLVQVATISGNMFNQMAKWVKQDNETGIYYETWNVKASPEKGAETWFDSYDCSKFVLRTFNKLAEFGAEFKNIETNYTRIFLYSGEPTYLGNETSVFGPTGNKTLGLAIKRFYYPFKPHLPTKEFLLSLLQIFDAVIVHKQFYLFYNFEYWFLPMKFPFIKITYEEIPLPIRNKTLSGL
UniProt Q8WUD6: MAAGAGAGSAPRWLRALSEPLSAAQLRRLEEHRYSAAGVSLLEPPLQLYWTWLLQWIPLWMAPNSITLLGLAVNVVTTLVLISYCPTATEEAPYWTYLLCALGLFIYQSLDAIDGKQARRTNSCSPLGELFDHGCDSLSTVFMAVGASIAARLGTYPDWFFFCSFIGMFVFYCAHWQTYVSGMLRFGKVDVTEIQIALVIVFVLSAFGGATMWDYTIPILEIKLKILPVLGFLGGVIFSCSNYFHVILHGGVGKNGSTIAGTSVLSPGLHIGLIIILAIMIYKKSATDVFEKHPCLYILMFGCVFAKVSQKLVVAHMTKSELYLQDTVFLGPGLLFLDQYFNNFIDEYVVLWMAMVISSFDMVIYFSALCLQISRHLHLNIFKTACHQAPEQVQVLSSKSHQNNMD

Tests used:
Test in all cases: log2 fold change, soluble protein after heating vs DMSO (PISA); higher = thermal stabilisation; K562 cells, 10 uM, 30 min; active = over 0.2 and 3.5 SD of the protein, either way, in both replicates (recomputed)
[1] = compound: CC1=C(C=C(C=C1)NC(=O)C2=CC(=CC=C2)C(C)(C)C#N)NC3=CC4=C(C=C3)N=CN(C4=O)C
Outline: (§1)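 For each measurement, 10 μM compound was applied for 30 min to K562 cells at 2×10^6 cells/mL. Aliquots were heated for 3 min across 48°C-58°C, pooled, and extracted in PBS with 0.5% NP-40 at 4°C; the supernatant after 21,000xg for 90 min was soluble protein. This was quantified by TMTpro 16plex LC-MS/MS with channel sums equalised, and thermal stability was reported relative to control samples from duplicates, on a log2 fold-change scale.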

[2] = compound: CC1=C(C=C(C=C1)NC(=O)C2=CC(=CC=C2)N(C)C)NC(=O)C3=CC=C(C=C3)O
Outline: as §1

[3] = compound: CC1=CC=C(C=C1)SC2=C3C=C(SC3=CN=C2)C(=O)N
Outline: as §1

[4] = compound: CC1=NC(=CC=C1)C2=C(N=C(N2)C(C)(C)C)C3=CC4=NC=CN=C4C=C3
Outline: as §1

[5] = compound: CCCCN(Cc1ccc(C(=O)NO)cc1)C(=O)Nc1ccccc1 [Nexturastat A]
Outline: as §1

[6] = compound: CCCS(=O)(=O)Nc1ccc(F)c(C(=O)c2c[nH]c3ncc(-c4ccc(Cl)cc4)cc23)c1F [vemurafenib]
Outline: as §1

[7] = compound: CCCS(=O)(=O)Nc1ccc(F)c(C(=O)c2c[nH]c3ncc(Cl)cc23)c1F
Outline: as §1

[8] = compound: CCCc1cc(C)[nH]c(=O)c1CNC(=O)c1cc(-c2ccnc(N3CCN(C)CC3)c2)cc2c1cnn2C(C)C
Outline: as §1

[9] = compound: CCN(CC)Cc1ccc2cc(COC(=O)Nc3ccc(C(=O)NO)cc3)ccc2c1 [givinostat]
Outline: as §1

[10] = compound: CCN(CCCOc1ccc2c(Nc3cc(CC(=O)Nc4cccc(F)c4)[nH]n3)ncnc2c1)CCOP(=O)(O)O [barasertib]
Outline: as §1

Target	log2 fold change [1]	log2 fold change [2]	log2 fold change [3]	log2 fold change [4]	log2 fold change [5]	log2 fold change [6]	log2 fold change [7]	log2 fold change [8]	log2 fold change [9]	log2 fold change [10]
CLNS1A (UniProt P54105)	inactive: -0.047	inactive: 0.014	inactive: -0.009	inactive: 0.001	inactive: 0.001	inactive: 0.005	inactive: 0.021	inactive: 0.019	inactive: -0.008	inactive: 0.005
CLCN3 (UniProt P51790)	inactive: -0.03	inactive: 0.046	inactive: 0.015	inactive: 0.034	active: -0.313	inactive: 0.014	inactive: 0.009	inactive: -0.107	inactive: 0.02	inactive: 0.053
CLGN (UniProt O14967)	inactive: 0.015	inactive: -0.032	inactive: 0.014	inactive: -0.037	inactive: 0.075	inactive: -0.06	inactive: 0.054	inactive: 0.06	inactive: -0.022	inactive: -0.105
CNP (UniProt P09543)	inactive: -0.05	inactive: -0.029	inactive: -0.01	inactive: 0.018	inactive: -0.08	inactive: 0.013	inactive: 0.006	inactive: -0.042	inactive: -0.027	inactive: 0.002
CHST11 (UniProt Q9NPF2)	inactive: 0.019	inactive: 0.099	inactive: 0.189	inactive: 0.047	inactive: 0.013	inactive: 0.027	active: 0.384	inactive: 0.089	inactive: -0.029	inactive: 0.049
CHPF (UniProt Q8IZ52)	inactive: 0.061	inactive: 0.061	inactive: 0.006	inactive: -0.205	inactive: -0.12	inactive: -0.126	inactive: -0.135	inactive: 0.125	–	inactive: -0.029
CLTC (UniProt Q00610)	inactive: 0.046	inactive: -0.02	inactive: 0.005	inactive: -0.012	inactive: 0.07	inactive: 0.017	inactive: 0.088	inactive: -0.01	inactive: 0.079	inactive: -0.005
CMSS1 (UniProt Q9BQ75)	inactive: -0.027	inactive: -0.069	inactive: -0.011	inactive: 0.027	inactive: 0.038	inactive: -0.021	inactive: -0.025	inactive: 0.045	inactive: -0.009	inactive: 0.08
CKMT2 (UniProt P17540)	inactive: -0.081	inactive: -0.034	inactive: -0.019	inactive: -0.016	inactive: 0	inactive: -0.01	inactive: 0.001	inactive: -0.033	inactive: -0.079	inactive: -0.064
CISD1 (UniProt Q9NZ45)	inactive: 0.006	inactive: -0.006	inactive: -0.009	inactive: 0.007	inactive: -0.01	inactive: -0.017	inactive: -0.043	inactive: -0.01	inactive: -0.252	inactive: -0.021
CLSPN (UniProt Q9HAW4)	inactive: -0.048	inactive: 0.003	inactive: -0.025	inactive: -0.035	inactive: 0.006	inactive: 0.041	inactive: 0	inactive: -0.012	inactive: -0.032	inactive: 0.006
CMPK2 (UniProt Q5EBM0)	inactive: 0.062	–	inactive: -0.013	inactive: -0.014	inactive: 0.022	inactive: -0.043	inactive: -0.022	inactive: 0.017	inactive: 0.036	inactive: 0.028
COG4 (UniProt Q9H9E3)	inactive: 0.118	inactive: 0.013	–	inactive: -0.177	inactive: 0.292	inactive: 0.115	–	–	inactive: 0.006	–
CNPY4 (UniProt Q8N129)	inactive: 0.002	inactive: 0.002	inactive: -0.028	–	–	inactive: 0.017	inactive: -0.052	inactive: -0.057	inactive: 0.052	inactive: 0.026
CLN6 (UniProt Q9NWW5)	inactive: 0.038	inactive: 0.014	inactive: -0.014	–	inactive: 0.045	inactive: 0.199	inactive: 0.071	inactive: -0.001	–	inactive: 0.061
CMIP (UniProt Q8IY22)	inactive: -0.075	inactive: -0.012	–	–	inactive: 0.418	–	–	inactive: 0.153	–	inactive: -0.064
COG2 (UniProt Q14746)	inactive: -0.064	inactive: 0	–	inactive: 0.096	inactive: 0.432	–	–	inactive: -0.59	inactive: 0.048	–

Target	log2 fold change [1]	log2 fold change [2]	log2 fold change [3]	log2 fold change [4]	log2 fold change [5]	log2 fold change [6]	log2 fold change [7]	log2 fold change [8]	log2 fold change [9]	log2 fold change [10]
CNOT6 (UniProt Q9ULM6)	inactive: -0.075	inactive: -0.067	–	–	–	inactive: 0.04	–	inactive: 0.011	inactive: -0.018	inactive: -0.012
COL18A1 (UniProt P39060)	inactive: -0.108	inactive: 0.039	inactive: 0.042	–	inactive: 0.228	inactive: 0.208	inactive: -0.062	inactive: -0.058	inactive: -0.037	inactive: -0.082
CNN1 (UniProt P51911)	inactive: -0.068	–	inactive: -0.1	–	inactive: -0.029	inactive: 0.056	inactive: -0.042	inactive: -0.012	–	–
COG1 (UniProt Q8WTW3)	inactive: 0.02	inactive: -0.065	inactive: -0.119	inactive: -0.298	–	–	inactive: -0.058	–	–	–
CNTRL (UniProt Q7Z7A1)	inactive: -0.062	inactive: 0.043	–	–	–	inactive: 0.115	–	–	–	–
CNN3 (UniProt Q15417)	inactive: 0.014	–	inactive: 0.064	–	inactive: 0.015	inactive: 0.034	inactive: 0.07	inactive: -0.018	inactive: 0.073	inactive: 0.047
CNBP (UniProt P62633)	inactive: 0.057	–	inactive: -0.074	–	–	–	inactive: -0.045	inactive: 0.03	inactive: 0.1	inactive: -0.075
COL12A1 (UniProt Q99715)	inactive: -0.511	inactive: 0.092	inactive: 0.122	–	inactive: 0.266	–	inactive: 0.062	–	–	–
CKAP4 (UniProt Q07065)	inactive: 0.025	inactive: 0.056	inactive: -0.013	–	–	inactive: -0.024	inactive: -0.009	inactive: -0.089	–	–
CNOT11 (UniProt Q9UKZ1)	inactive: 0.063	inactive: -0.009	–	inactive: -0.021	inactive: -0.025	inactive: 0.002	–	inactive: -0.021	inactive: -0.009	inactive: 0.078
CHST2 (UniProt Q9Y4C5)	inactive: -0.024	–	inactive: 0.055	inactive: -0.034	inactive: 0.023	–	inactive: -0.118	inactive: 0.031	inactive: 0.006	inactive: -0.03
CHST12 (UniProt Q9NRB3)	inactive: -0.03	inactive: -0.073	–	inactive: 0.05	inactive: 0.347	inactive: -0.006	–	–	inactive: 0	inactive: -0.015
CHPF2 (UniProt Q9P2E5)	inactive: -0.024	inactive: 0.123	inactive: -0.053	–	inactive: -0.096	inactive: 0.116	inactive: -0.037	inactive: 0.009	inactive: -0.118	inactive: -0.077
CLN5 (UniProt O75503)	inactive: 0.031	–	inactive: 0.058	inactive: 0.068	inactive: 0.012	–	inactive: 0.104	inactive: -0.54	inactive: -0.17	inactive: 0.06
CHPT1 (UniProt Q8WUD6)	inactive: 0.088	inactive: 0.055	inactive: 0.132	–	inactive: 0.114	–	inactive: 0.051	inactive: 0.047	–	–
CNIH4 (UniProt Q9P003)	inactive: 0.076	inactive: -0.049	inactive: 0.147	inactive: -0.102	–	inactive: -0.051	inactive: 0.223	inactive: -0.082	inactive: 0.1	inactive: -0.054
CLSTN1 (UniProt O94985)	inactive: -0.197	inactive: 0.03	inactive: -0.128	inactive: -0.19	–	–	inactive: -0.239	inactive: 0.016	–	inactive: 0.18

Reformatted as comma-separated lines: part of the list above.
Target,log2 fold change [1],log2 fold change [2],log2 fold change [3],log2 fold change [4],log2 fold change [5],log2 fold change [6],log2 fold change [7],log2 fold change [8],log2 fold change [9],log2 fold change [10]
CNTRL (UniProt Q7Z7A1),inactive: -0.062,inactive: 0.043,–,–,–,inactive: 0.115,–,–,–,–
CNN3 (UniProt Q15417),inactive: 0.014,–,inactive: 0.064,–,inactive: 0.015,inactive: 0.034,inactive: 0.07,inactive: -0.018,inactive: 0.073,inactive: 0.047
